# Library screening results

A: 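Whole-cell assay for inhibitors of Mycobacterium tuberculosis growth, labelled Cornell in the record; the read-out is not stated. The concentration is filed as 10 mM, unlikely as a test dose, so the dose is not known. Higher means stronger inhibition (inferred from two other growth screens of the library). About 53,000 compounds were tested under these conditions; 1.7% (about 900) showed 50% or more at least once.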
B: 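Assay on Mycobacterium tuberculosis, filed only as a heat shock assay from Cornell; the read-out is not stated. The concentration is filed as 10 mM, unlikely as a test dose, so the dose is not known. Higher reads as stronger inhibition (inferred: compounds with an IC50 in retests scored well above the rest). Size under these conditions: about 69,000 compounds, about 930 of them at 50% or above in at least one test.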

The filed quantity is “Percent Effect” (%). How 0% and 100% were set is not recorded. Most values in the screen are low, and negative values occur. Compounds were drawn at random from those tested, without regard to their results. A dash means the value is not listed here; it may have been measured.

compound,A,B
Cc1ccc(NC2CCN(C(=O)c3cccc(F)c3F)CC2)nn1,-,-7.283%
CN(C)C(=O)Cc1nc(CN2CCOC(Cn3cccn3)C2)cs1 (stereo not drawn),4.243%,-25.05%
CN(c1ncc(C(N)=O)cc1Cl)C1CCC(c2ccccc2)CC1 (stereo not drawn),32.5%,12.93%
CSc1ncc(CN(C)C(C)c2cccnc2)cn1 (stereo not drawn),19.75%,-38.14%
CCOC(=O)COc1ccc(C(C)=O)c(O)c1,7.36%,-22.52%
Cn1ccc(C(=O)NCc2ccc(N3CCCCCC3)nc2)cc1=O,5.083%,2.805%
CC(C)C(C)NC(=O)Nc1cccc(OCC#N)c1 (stereo not drawn),32.08%,-4.204%
O=C(O)C(F)(F)F.O=C1COC2(CCN(Cc3cccs3)CC2)CN1c1ccsc1,11.21%,-4.326%
CN(C)CCN1C(=O)CCC12CCCN(C(=O)c1ccncc1F)C2.O=C(O)C(F)(F)F (stereo not drawn),-23.79%,32.95%
Cn1c(C(=O)N2CCC(CC(N)=O)CC2)c(Cl)c2ccccc21,-5.817%,-21.6%
[H][C@]12CC[C@]([H])(CN(S(C)(=O)=O)C1)N(C(=O)Cn1ccc3ccccc31)C2,23.1%,19.69%
Cc1noc(C)c1CN1CCC(N(C)Cc2nnc(C3CC3)n2C)C1 (stereo not drawn),-8.378%,-7.868%
Cc1cccc(C(C(=O)N2CC(c3cccnc3)C2)N(C)C)c1 (stereo not drawn),2.522%,7.594%
Cc1cc2ccccc2n1CC(=O)N[C@@H](C)C(=O)O,-4.674%,13.25%
COc1cc(C(C)NCc2cscn2)ccc1SC(F)F (stereo not drawn),8.517%,-19.21%
O=C(CCO)N[C@H]1CN(CC2CCC2)C[C@@H]1c1ccccc1,-,-4.912%
CSc1ccccc1CN1CCn2nc(CNC(C)=O)cc2C1,-29.28%,6.44%
c1cnn(CCC2CCN(Cc3ccc4[nH]ccc4c3)CC2)c1,17.52%,8.162%
COc1ccc2nc(O)c(CN(C)Cc3ncc[nH]3)cc2c1,-6.023%,-11.46%
O=C(c1cccnc1)N1CCCC(Cc2nccs2)C1 (stereo not drawn),-2.079%,-4.612%
O=C(c1cnc(-c2ccccn2)s1)N1CCCC1Cn1cccn1 (stereo not drawn),13.22%,-11.82%
CCc1ncnc2c1CCN(Cc1ccccn1)CC2.O=C(O)C(F)(F)F.O=C(O)C(F)(F)F,-,-16.78%
CC(C)COC(C)C(=O)NCc1ccc(N(C)C)cc1 (stereo not drawn),-,0.7743%
CC(C)(C)CCN1CCC(c2nnc(Cn3cccn3)n2C2CC2)CC1,-50.83%,-5.507%
Cc1cc(CNC(=O)N2CCOC(c3ccccc3Cl)C2)no1 (stereo not drawn),-0.6476%,-34.55%
N#Cc1c(CN2CCCCC2Cn2cncn2)cn2ccccc12 (stereo not drawn),7.463%,-4.632%
CCN(C)C1COC2(CCN(C(=O)c3cccc(Cl)c3)CC2)C1.O=C(O)C(F)(F)F (stereo not drawn),-,1.737%
CCC(=O)N1CCC(Cc2ccccc2-c2ccccc2F)(C(N)=O)C1 (stereo not drawn),-34.7%,2.706%
[H][C@@]12CNC[C@]1([H])CN(C(=O)C1CCC1)C2,-10.12%,-38.46%
CCNc1nc2c(s1)C(=O)CN(C(=O)NCc1ccccc1)C2,14.19%,-8.376%
CN1CCCc2cc(NC(=O)N3CCOC(C(N)=O)C3)ccc21 (stereo not drawn),32.16%,46.8%
Cc1cc(C)n(CC(C)Nc2ncnc3c2CCNC3)n1 (stereo not drawn),10.86%,3.164%
Cc1ncncc1-c1ccnc(N(C)C)n1,5.809%,-6.771%
CC(=O)N1CCC(NCc2cccnc2N(C)Cc2ccccc2)CC1,14.45%,2.164%
Cc1cnn(CC2CCCN2C(=O)c2ccc(C(N)=O)cn2)c1 (stereo not drawn),12.57%,9.801%
CC(C)CN1CCNC(=O)C12CCN(S(=O)(=O)c1ccc(F)cc1)CC2,-,-6.387%
CC(C)Cc1noc(CN(C)c2cc(N(C)C)ncn2)n1,-,-10.9%
COc1cc(CN(Cc2ccccn2)CC(C)C)cc2c1OCO2,24.93%,-15.4%
COC(=O)[C@H](C)NC(=O)CSCc1nc2sc(C(C)C)cc2c(=O)[nH]1,57.77%,16.18%
[H][C@@]12CCN(C(=O)c3cscn3)[C@@]1([H])CC(=O)N2Cc1cccnc1,3.372%,-5.673%
COCCCNC(=O)c1cn(C(C)(C)C)c2ncccc12,-11.93%,50.28%
CNC(=O)c1ccc(NC(=O)NC(C)CCc2cccn2C)c(C)c1 (stereo not drawn),-0.3723%,6.309%
CNC(=O)NC(=O)CCSCc1cc(F)cc2cccnc12,9.719%,9.786%
CCOc1cccc(NC(=O)c2cc(C)on2)n1,7.843%,1.537%
CC(C)c1ccc(O)c(C(=O)NCc2nncn2C)c1,18.15%,-25.97%
COc1cccc(CC2CN(C3CCN(C(C)=O)CC3)CCO2)c1 (stereo not drawn),-9.272%,-22.76%
CCOCC(=O)N1Cc2nccn2CC(CN(C)C)C1 (stereo not drawn),12.68%,-16.33%
COCCN1CCC(CNC(=O)C2(NC(C)=O)CCCCC2)CC1,-,-7.126%
O=C(O)C(F)(F)F.O=C(O)C(F)(F)F.c1ccc(NCc2cn3c(n2)CN(Cc2cccs2)CC3)nc1,-0.5243%,-31.34%
CCOC(=O)N1CCN(C(=O)C(CC)n2cccn2)CC1 (stereo not drawn),-7.213%,-30.88%
CN1CCC2(CCC1=O)CCN(C(=O)Cc1ccc(O)c(F)c1)CC2,-,-6.843%
Cc1cc2c(cc1Cl)C=CC1(CCN(C(=O)N3CCOCC3)CC1)O2,23.79%,-25.22%
CC(C)CN(Cc1ccc(C(F)(F)F)nc1)Cc1cnn(C)c1,10.85%,-18.96%
O=C(NCCCN1CCOCC1)c1cc(-c2ccco2)[nH]n1,39.09%,4.501%
CCc1cc(=O)[nH]c(-c2ccc(NCCc3ccc(O)cc3)nc2)n1,18.71%,10.23%
Cn1ccc(N2CCCC(NC(=O)c3ccc(Cl)o3)C2=O)n1 (stereo not drawn),-,-152.7%
CSC1=Nc2c(cnn2-c2ccc(C)cc2)C2=NCCCN12,-,-0.3352%
Cc1cccn2cc(C(=O)N3CCCN(CC4CC4)C(C(C)C)C3)nc12 (stereo not drawn),10.56%,-9.95%
COC1CCN(S(=O)(=O)NCC2COc3ccccc3C2)CC1 (stereo not drawn),23.14%,-9.433%
O=C1CCC(=O)N1c1nn(Cc2ccccc2)cc1Cl,-38.92%,-23.91%
O=C(CN1CCS(=O)(=O)CC1)NCc1ccccc1F,5.07%,-9.142%
COC(=O)c1cccn1C1CCN(Cc2nc3ccccc3o2)CC1,-,-14.71%
N[C@H]1CN(C(=O)c2ccccc2OCc2ccccc2)C[C@@H]1C1CC1,10.77%,5.173%
O=C(NCC1(O)COCCN(Cc2cccc(O)c2)C1)c1ccccn1 (stereo not drawn),-47.38%,-3.517%
O=C(c1n[nH]cc1Cl)N1CCSCC1,12.98%,7.897%

The first 8 entries again:

compound,A,B
Cc1ccc(NC2CCN(C(=O)c3cccc(F)c3F)CC2)nn1,-,-7.283%
CN(C)C(=O)Cc1nc(CN2CCOC(Cn3cccn3)C2)cs1 (stereo not drawn),4.243%,-25.05%
CN(c1ncc(C(N)=O)cc1Cl)C1CCC(c2ccccc2)CC1 (stereo not drawn),32.5%,12.93%
CSc1ncc(CN(C)C(C)c2cccnc2)cn1 (stereo not drawn),19.75%,-38.14%
CCOC(=O)COc1ccc(C(C)=O)c(O)c1,7.36%,-22.52%
Cn1ccc(C(=O)NCc2ccc(N3CCCCCC3)nc2)cc1=O,5.083%,2.805%
CC(C)C(C)NC(=O)Nc1cccc(OCC#N)c1 (stereo not drawn),32.08%,-4.204%
O=C(O)C(F)(F)F.O=C1COC2(CCN(Cc3cccs3)CC2)CN1c1ccsc1,11.21%,-4.326%

Measurements from “University of Dundee, Small-Polar-MMV Screening Library” (2021), ChEMBL document CHEMBL3988442.